Results are given in words; binding and its absence hold for the method and conditions named. Some results given as binding are weak or reduced against the parent protein; the word gives no strength.
What was measured:
[1] = molecular target: insoluble tau complexes isolated from FTD brain (human) (UniProt P10636); test: immunoblot of sarkosyl-insoluble tau
[2] = molecular target: insoluble tau complexes isolated from corticobasal degeneration brain (human) (UniProt P10636); test: immunoblot of sarkosyl-insoluble tau
[3] = molecular target: sarcosyl-insoluble tau isolated from human Alzheimer's disease brain tissue (PHF-tau) (human) (UniProt P10636); test: immunoblot of sarkosyl-insoluble tau
[4] = molecular target: glial tau pathology in putamen/caudate nucleus of progressive supranuclear palsy (PSP) brain sections (human) (UniProt P10636); test: immunohistochemistry on paraffin brain sections
[5] = molecular target: tau pathology in Alzheimer's disease brain sections (neurofibrillary tangles, neuropil threads, neuritic plaques) (human) (UniProt P10636); test: immunohistochemistry on paraffin brain sections
[6] = molecular target: Pick's bodies in the dentate gyrus of FTD (Pick's disease) brain sections (human) (UniProt P10636); test: immunohistochemistry on paraffin brain sections
[7] = molecular target: glial tau pathology in caudate nucleus of corticobasal degeneration (CBD) brain sections (human) (UniProt P10636); test: immunohistochemistry on paraffin brain sections
fetal rat tau (rat) [8] = molecular target: fetal rat tau (rat) (UniProt P19332); test: immunoblot
[9] = molecular target: sarcosyl-insoluble tau isolated from human Alzheimer's disease brain tissue (PHF-tau) (human) (UniProt P10636); test: immunoblot
[10] = molecular target: sarcosyl-insoluble tau isolated from human Alzheimer's disease brain tissue (PHF-tau) (human) (UniProt P10636); test: ELISA screen of hybridoma supernatants on coated PHF-tau
fetal rat tau (rat) [11] = molecular target: fetal rat tau (rat) (UniProt P19332); test: immunoblot (summary of Example 8)
[12] = molecular target: sarcosyl-insoluble tau isolated from human Alzheimer's disease brain tissue (PHF-tau) (human) (UniProt P10636); test: immunoblot (summary of Example 8)

The chains behind the UniProt entries cited, without tags or fusion partners. Where a name states a change or a piece, a line headed by the entry shows the natural chain unless it says otherwise. A line that says so, or that is headed by a name, gives the form on record, which may keep a tag or linker.
sarcosyl-insoluble tau isolated from human Alzheimer's disease brain tissue (PHF-tau) (P10636, form named): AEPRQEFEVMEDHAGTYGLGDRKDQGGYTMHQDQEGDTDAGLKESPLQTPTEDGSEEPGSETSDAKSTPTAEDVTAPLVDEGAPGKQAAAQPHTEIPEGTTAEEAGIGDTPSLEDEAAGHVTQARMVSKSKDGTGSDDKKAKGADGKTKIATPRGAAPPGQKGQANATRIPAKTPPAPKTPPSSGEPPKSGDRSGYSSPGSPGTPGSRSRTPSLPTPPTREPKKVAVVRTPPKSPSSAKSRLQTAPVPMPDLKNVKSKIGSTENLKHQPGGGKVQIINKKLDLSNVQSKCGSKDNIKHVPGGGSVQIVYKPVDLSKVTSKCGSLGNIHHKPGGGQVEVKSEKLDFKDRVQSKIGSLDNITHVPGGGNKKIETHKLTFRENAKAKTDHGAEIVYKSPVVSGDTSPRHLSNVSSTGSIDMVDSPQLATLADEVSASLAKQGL
Pick's bodies in the dentate gyrus of FTD (Pick's disease) brain sections (P10636, form named): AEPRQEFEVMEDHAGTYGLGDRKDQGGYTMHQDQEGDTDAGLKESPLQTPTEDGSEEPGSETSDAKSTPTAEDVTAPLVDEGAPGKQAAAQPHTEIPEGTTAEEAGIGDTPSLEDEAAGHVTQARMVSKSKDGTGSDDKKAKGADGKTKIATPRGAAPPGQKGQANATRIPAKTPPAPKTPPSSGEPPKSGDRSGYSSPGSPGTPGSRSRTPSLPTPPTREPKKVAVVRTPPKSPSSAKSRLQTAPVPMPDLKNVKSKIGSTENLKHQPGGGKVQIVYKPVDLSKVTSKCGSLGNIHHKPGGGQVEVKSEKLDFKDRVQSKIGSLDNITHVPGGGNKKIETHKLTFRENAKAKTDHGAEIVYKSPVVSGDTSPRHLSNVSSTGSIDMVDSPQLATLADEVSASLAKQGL
fetal rat tau (P19332, form named): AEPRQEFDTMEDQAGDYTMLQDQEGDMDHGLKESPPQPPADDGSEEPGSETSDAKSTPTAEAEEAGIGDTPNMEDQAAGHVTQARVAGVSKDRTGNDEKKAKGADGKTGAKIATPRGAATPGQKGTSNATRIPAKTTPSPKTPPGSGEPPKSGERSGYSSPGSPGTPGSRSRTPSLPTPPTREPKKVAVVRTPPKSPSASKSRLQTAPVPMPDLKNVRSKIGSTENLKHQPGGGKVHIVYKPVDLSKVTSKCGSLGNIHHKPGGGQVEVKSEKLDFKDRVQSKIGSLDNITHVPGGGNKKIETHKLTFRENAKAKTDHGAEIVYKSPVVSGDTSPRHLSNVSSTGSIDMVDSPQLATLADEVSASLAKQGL

Measured: binding

B1: monoclonal antibody DC2E7 (antibody, V domains shown)
VH: DVQLVESGGGLVQPGGSRKLSCAASGFTFSSFGMHWVRQAPEKGLEWVAYISGDSNTIYYADTVKGRFTISRDNPKNTLFLQMTSLRSEDTAIYYCARTLAYWGQGTLVTVS
VL: DIQMTQSSSSFSVSLGDRVTITCKASEDIYNRLAWYQQTPGNAPSLLISGASGLETGVPSRFSGSGSGRDYTLSITSLQTEDVATYYCLQYWSIPWTFGGGTKLEIKR
binds: [1] | [2] | [3] | [4] | [5] | [6] | [7] | fetal rat tau (rat) [8] | [9] | [10] | fetal rat tau (rat) [11] | [12]
